From the supplement of paper PMC10849652
The list shows a part of the results.

Protein sequences, listed by entry. Tags and fused reporters are not part of them. Lines headed by an entry give the natural chain unless they say otherwise; changes in a name come on top.
UniProt Q13136: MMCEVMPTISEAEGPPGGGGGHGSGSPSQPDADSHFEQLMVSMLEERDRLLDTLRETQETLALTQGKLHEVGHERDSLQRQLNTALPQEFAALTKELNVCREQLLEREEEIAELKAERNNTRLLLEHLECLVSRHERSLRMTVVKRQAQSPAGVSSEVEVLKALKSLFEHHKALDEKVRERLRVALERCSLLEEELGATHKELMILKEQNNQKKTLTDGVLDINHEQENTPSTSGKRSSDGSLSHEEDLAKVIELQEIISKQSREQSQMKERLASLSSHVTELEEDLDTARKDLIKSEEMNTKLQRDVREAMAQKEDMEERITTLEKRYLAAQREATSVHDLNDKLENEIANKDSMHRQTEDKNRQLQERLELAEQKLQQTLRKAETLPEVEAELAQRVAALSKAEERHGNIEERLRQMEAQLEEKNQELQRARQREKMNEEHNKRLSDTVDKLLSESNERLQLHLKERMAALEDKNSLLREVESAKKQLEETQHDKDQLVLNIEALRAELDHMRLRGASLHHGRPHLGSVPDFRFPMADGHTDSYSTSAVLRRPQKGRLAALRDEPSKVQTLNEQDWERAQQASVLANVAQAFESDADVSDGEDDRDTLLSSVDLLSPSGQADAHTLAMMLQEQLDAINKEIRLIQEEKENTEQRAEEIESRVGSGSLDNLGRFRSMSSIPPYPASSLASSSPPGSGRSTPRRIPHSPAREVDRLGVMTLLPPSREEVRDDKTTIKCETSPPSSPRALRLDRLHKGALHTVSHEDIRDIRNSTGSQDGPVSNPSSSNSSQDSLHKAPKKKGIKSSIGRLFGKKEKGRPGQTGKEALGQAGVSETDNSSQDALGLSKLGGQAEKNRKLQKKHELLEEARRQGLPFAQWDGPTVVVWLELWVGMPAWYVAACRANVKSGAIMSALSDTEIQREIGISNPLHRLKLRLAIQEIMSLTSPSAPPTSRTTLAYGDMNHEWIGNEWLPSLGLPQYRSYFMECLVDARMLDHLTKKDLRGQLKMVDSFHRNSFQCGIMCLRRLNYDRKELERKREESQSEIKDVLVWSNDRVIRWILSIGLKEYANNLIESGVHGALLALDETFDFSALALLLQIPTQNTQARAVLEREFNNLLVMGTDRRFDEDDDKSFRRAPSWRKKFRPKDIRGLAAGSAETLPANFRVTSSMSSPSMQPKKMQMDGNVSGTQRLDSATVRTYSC
UniProt Q6P1K2: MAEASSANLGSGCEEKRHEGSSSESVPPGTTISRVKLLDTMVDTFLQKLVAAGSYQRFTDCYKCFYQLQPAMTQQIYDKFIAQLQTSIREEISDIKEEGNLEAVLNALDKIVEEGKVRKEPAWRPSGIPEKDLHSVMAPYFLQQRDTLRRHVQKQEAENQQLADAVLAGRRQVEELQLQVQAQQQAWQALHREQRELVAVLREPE
UniProt Q9UHN1: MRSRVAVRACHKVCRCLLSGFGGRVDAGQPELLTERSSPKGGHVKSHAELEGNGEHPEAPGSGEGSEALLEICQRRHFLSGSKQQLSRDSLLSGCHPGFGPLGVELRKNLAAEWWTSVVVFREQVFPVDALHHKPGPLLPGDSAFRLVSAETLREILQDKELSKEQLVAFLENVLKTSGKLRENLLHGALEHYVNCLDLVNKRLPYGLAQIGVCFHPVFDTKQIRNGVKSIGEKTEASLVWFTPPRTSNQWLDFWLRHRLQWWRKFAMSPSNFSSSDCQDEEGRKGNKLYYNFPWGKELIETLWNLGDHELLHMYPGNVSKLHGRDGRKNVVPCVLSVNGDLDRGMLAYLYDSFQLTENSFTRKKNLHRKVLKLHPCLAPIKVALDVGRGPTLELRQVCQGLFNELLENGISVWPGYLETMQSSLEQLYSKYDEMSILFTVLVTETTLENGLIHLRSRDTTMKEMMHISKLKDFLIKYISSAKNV
UniProt O60568: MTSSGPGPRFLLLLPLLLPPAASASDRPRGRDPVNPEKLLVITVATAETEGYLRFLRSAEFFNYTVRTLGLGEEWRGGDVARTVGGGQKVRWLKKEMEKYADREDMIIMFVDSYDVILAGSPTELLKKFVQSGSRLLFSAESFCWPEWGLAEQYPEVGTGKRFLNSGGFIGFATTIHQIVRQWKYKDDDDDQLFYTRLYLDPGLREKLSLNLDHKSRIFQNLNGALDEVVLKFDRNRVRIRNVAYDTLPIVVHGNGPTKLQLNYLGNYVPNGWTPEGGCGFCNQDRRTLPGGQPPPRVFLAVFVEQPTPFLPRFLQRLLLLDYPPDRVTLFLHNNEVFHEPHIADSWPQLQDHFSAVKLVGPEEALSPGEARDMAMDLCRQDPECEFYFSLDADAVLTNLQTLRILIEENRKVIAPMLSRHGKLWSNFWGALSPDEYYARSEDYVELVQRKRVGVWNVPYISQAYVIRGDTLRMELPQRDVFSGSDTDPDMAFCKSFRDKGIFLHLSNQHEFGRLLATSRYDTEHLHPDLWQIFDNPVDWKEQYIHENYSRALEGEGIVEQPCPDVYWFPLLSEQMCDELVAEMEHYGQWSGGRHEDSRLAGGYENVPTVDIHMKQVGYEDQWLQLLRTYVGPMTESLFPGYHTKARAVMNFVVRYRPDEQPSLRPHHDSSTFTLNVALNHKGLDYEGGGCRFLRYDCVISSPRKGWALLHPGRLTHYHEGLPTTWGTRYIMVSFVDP
UniProt Q8WZA1: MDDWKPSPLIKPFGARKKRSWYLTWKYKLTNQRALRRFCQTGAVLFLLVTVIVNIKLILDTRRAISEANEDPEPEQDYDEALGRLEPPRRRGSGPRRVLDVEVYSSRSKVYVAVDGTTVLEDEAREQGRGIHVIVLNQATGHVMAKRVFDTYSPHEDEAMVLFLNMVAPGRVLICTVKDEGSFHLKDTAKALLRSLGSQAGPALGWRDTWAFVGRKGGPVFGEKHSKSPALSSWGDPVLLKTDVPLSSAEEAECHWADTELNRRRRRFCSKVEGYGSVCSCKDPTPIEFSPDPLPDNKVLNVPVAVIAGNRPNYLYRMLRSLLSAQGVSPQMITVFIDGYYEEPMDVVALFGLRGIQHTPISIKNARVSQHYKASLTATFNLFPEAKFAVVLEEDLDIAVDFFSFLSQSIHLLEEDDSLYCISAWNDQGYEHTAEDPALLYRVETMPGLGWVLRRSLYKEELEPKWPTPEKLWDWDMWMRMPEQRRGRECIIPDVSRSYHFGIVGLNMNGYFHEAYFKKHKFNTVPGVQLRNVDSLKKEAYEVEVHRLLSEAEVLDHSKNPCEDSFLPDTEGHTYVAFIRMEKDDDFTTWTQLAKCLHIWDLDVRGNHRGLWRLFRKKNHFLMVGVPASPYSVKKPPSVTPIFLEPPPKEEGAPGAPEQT
UniProt Q06203, whole entry, looked up: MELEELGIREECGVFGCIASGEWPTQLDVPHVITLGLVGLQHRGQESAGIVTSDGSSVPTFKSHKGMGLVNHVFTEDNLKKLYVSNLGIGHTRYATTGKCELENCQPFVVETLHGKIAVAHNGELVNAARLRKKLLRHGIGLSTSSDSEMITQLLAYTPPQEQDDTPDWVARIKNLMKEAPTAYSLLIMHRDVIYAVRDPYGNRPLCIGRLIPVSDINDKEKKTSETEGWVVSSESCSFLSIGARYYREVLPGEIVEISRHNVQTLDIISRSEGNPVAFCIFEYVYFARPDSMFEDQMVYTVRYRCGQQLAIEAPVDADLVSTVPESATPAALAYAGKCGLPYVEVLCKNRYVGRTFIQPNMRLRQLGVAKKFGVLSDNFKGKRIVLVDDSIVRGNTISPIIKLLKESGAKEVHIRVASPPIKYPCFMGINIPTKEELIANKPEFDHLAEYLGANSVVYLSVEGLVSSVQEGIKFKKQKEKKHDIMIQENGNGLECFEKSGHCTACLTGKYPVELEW
UniProt Q9H2U2: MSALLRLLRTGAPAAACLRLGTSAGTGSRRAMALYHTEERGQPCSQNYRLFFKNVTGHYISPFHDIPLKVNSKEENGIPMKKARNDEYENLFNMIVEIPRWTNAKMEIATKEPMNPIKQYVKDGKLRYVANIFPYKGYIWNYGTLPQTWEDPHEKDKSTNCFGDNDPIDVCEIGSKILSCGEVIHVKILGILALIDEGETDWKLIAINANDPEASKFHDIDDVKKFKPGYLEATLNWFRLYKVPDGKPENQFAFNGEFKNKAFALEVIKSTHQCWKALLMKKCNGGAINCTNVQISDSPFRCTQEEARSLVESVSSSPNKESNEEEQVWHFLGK
UniProt Q15063: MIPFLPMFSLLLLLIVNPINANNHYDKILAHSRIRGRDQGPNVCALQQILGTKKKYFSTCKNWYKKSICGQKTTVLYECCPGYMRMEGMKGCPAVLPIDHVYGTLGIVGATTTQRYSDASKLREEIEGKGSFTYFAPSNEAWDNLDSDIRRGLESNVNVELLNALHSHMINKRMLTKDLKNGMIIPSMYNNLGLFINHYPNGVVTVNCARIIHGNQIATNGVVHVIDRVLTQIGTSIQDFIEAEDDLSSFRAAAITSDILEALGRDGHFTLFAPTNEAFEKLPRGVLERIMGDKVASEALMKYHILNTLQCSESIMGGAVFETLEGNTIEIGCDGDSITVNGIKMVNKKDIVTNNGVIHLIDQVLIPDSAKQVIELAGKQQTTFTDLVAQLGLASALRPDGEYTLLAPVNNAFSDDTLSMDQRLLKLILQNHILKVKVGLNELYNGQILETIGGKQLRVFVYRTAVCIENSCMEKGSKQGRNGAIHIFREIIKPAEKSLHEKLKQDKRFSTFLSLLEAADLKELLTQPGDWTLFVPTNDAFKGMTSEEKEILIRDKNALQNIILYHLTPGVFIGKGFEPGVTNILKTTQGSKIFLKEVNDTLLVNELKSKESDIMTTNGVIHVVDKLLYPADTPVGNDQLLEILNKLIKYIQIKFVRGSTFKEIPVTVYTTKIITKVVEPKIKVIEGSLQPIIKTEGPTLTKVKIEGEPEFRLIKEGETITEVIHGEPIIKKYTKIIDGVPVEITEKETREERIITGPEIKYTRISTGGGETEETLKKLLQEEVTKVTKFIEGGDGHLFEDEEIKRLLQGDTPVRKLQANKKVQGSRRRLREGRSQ
UniProt Q9Y2S7: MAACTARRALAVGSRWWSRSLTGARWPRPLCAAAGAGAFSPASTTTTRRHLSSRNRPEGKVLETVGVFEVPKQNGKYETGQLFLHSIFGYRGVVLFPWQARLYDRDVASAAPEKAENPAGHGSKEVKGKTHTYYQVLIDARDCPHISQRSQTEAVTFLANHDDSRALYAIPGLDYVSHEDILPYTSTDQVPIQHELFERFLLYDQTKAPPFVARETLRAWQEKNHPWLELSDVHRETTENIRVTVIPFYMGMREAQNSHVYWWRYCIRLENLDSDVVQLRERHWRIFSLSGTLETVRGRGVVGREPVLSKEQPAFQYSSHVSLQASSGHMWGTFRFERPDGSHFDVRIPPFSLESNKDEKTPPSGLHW
UniProt Q15181: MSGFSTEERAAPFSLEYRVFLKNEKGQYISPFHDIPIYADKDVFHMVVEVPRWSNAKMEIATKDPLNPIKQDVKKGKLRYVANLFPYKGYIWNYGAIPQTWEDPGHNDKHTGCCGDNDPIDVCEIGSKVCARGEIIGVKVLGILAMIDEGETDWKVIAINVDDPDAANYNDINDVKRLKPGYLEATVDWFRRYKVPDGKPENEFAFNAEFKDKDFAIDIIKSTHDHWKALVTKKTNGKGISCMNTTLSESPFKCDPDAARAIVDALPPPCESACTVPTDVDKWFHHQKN
UniProt P14859: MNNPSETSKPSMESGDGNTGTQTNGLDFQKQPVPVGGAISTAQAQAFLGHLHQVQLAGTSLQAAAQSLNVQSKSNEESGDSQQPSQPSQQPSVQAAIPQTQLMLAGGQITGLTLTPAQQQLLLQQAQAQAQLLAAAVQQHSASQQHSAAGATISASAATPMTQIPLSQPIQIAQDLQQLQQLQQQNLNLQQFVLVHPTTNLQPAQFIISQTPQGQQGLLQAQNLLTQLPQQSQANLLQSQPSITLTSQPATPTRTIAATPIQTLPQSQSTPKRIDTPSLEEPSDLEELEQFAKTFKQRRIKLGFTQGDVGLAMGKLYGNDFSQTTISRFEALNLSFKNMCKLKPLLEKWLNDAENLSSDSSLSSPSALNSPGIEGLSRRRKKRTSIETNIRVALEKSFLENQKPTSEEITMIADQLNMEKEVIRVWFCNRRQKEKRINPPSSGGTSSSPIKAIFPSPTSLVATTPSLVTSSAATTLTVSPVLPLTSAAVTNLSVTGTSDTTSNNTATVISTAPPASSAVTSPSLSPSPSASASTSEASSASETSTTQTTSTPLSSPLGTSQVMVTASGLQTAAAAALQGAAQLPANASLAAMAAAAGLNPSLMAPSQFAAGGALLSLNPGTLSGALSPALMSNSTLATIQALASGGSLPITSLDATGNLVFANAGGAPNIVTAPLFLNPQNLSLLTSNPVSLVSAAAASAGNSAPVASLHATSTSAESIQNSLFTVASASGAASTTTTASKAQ
UniProt P30405: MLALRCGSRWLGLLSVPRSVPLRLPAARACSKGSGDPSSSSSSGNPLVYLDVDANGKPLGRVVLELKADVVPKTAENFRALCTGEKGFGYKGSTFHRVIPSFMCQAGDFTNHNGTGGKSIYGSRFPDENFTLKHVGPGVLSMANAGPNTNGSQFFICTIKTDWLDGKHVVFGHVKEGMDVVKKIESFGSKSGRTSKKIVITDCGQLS

Compound: COc1cc(C(=O)O)ccc1NC(=O)[C@@H]1N[C@@H](CC(C)(C)C)[C@](C#N)(c2ccc(Cl)cc2F)[C@H]1c1cccc(Cl)c1F [idasanutlin]
Test: log2 fold change, soluble protein after heating vs DMSO (PISA); higher = thermal stabilisation; K562 cells, 10 uM, 30 min; active = over 0.2 and 3.5 SD of the protein, either way, in both replicates (recomputed)
Procedure, shortened: (§1)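 K562 cells at 2×10^6 cells/mL were exposed to 10 μM compound for 30 min, then aliquots were heated for 3 min across 48°C-58°C, pooled, and extracted in PBS containing 0.5% NP-40 at 4°C. The supernatant after 21,000xg for 90 min was taken as soluble protein and measured by TMTpro 16plex LC-MS/MS with channel sums equalised. Thermal stability is reported relative to control samples, with values from duplicates. Fold changes are given on a log2 scale.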

log2 fold change, inactive:
POFUT2 (UniProt Q9Y2G5) 0.015
PPIA (UniProt P62937) -0.003
POLR3C (UniProt Q9BUI4) -0.026
POFUT1 (UniProt Q9H488) 0.09
PPM1B (UniProt O75688) -0.042
PPIP5K2 (UniProt O43314) -0.038
PNPO (UniProt Q9NVS9) -0.004
POLDIP3 (UniProt Q9BY77) 0.076
PPFIA1 (UniProt Q13136) 0.049
PMF1 (UniProt Q6P1K2) 0.159
POLG2 (UniProt Q9UHN1) 0.024
PLOD3 (UniProt O60568) 0.011
PLXNB2 (UniProt O15031) -0.034
PNO1 (UniProt Q9NRX1) 0.076
PLIN3 (UniProt O60664) -0.033
POMGNT1 isoform 2 (UniProt Q8WZA1) 0.038
POP7 (UniProt O75817) 0.12
PPAT (UniProt Q06203) -0.012
PPAN isoform 3 (UniProt Q9NQ55) 0.147
PPA2 (UniProt Q9H2U2) -0.047
POP5 (UniProt Q969H6) 0.041
POSTN (UniProt Q15063) 0.166
POLDIP2 (UniProt Q9Y2S7) -0.045
PPCDC (UniProt Q96CD2) -0.126
POLR2H (UniProt P52434) -0.068
POGLUT2 (UniProt Q6UW63) 0.087
POLR3F (UniProt Q9H1D9) 0.019
PPA1 (UniProt Q15181) -0.026
POTEF (UniProt A5A3E0) 0.035
POU2F1 isoform 6 (UniProt P14859) -0.051
PNKD isoform 2 (UniProt Q8N490) -0.025
PPIF (UniProt P30405) -0.075
PPIE (UniProt Q9UNP9) 0

Compound: COc1cc(Nc2ncc3c(n2)-c2ccc(Cl)cc2C(c2c(F)cccc2OC)=NC3)ccc1C(=O)O [alisertib]
Test: as above
Procedure, shortened: as §1

log2 fold change, inactive:
POFUT2 (UniProt Q9Y2G5) 0.018
PPIA (UniProt P62937) -0.046
POLR3C (UniProt Q9BUI4) 0
POFUT1 (UniProt Q9H488) -0.071
PPM1B (UniProt O75688) 0.022
PPIP5K2 (UniProt O43314) -0.034
PNPO (UniProt Q9NVS9) -0.034
POLDIP3 (UniProt Q9BY77) -0.06
PPFIA1 (UniProt Q13136) -0.057
PMF1 (UniProt Q6P1K2) 0.027
POLG2 (UniProt Q9UHN1) -0.053
PLOD3 (UniProt O60568) -0.084
PLXNB2 (UniProt O15031) -0.022
PNO1 (UniProt Q9NRX1) -0.112
PLIN3 (UniProt O60664) -0.042
POMGNT1 isoform 2 (UniProt Q8WZA1) -0.238
POP7 (UniProt O75817) -0.121
PPAT (UniProt Q06203) -0.082
PPAN isoform 3 (UniProt Q9NQ55) -0.051
PPA2 (UniProt Q9H2U2) 0.011
POP5 (UniProt Q969H6) -0.105
POSTN (UniProt Q15063) 0
POLDIP2 (UniProt Q9Y2S7) -0.097
PPCDC (UniProt Q96CD2) -0.042
POLR2H (UniProt P52434) -0.053
POGLUT2 (UniProt Q6UW63) -0.036
POLR3F (UniProt Q9H1D9) -0.091
PPA1 (UniProt Q15181) -0.042
POTEF (UniProt A5A3E0) 0.015
POU2F1 isoform 6 (UniProt P14859) 0.053
PNKD isoform 2 (UniProt Q8N490) -0.094
PPIF (UniProt P30405) -0.055
PPIE (UniProt Q9UNP9) -0.006

Compound: COc1cc2nc(-c3cc(F)ccc3O)nc(N[C@@H]3CNC[C@H]3C(C)(C)O)c2cc1OC
Test: as above
Procedure, shortened: as §1

log2 fold change, inactive:
POFUT2 (UniProt Q9Y2G5) 0.073
PPIA (UniProt P62937) 0.039
POLR3C (UniProt Q9BUI4) -0.061
POFUT1 (UniProt Q9H488) -0.018
PPM1B (UniProt O75688) 0.051
PPIP5K2 (UniProt O43314) 0.075
PNPO (UniProt Q9NVS9) -0.024
POLDIP3 (UniProt Q9BY77) -0.022
PPFIA1 (UniProt Q13136) 0.048
PMF1 (UniProt Q6P1K2) -0.057
POLG2 (UniProt Q9UHN1) -0.005
PLOD3 (UniProt O60568) 0.015
PLXNB2 (UniProt O15031) 0.073
PNO1 (UniProt Q9NRX1) 0.202
PLIN3 (UniProt O60664) -0.065
POMGNT1 isoform 2 (UniProt Q8WZA1) 0.11
POP7 (UniProt O75817) -0.125
PPAT (UniProt Q06203) 0.02
PPAN isoform 3 (UniProt Q9NQ55) 0.123
PPA2 (UniProt Q9H2U2) 0.068
POP5 (UniProt Q969H6) -0.113
POSTN (UniProt Q15063) -0.015
POLDIP2 (UniProt Q9Y2S7) 0.012
PPCDC (UniProt Q96CD2) -0.017
POLR2H (UniProt P52434) 0.184
POGLUT2 (UniProt Q6UW63) 0.019
POLR3F (UniProt Q9H1D9) 0.036
PPA1 (UniProt Q15181) 0.041
POTEF (UniProt A5A3E0) 0.034
POU2F1 isoform 6 (UniProt P14859) -0.023
PNKD isoform 2 (UniProt Q8N490) 0.001
PPIF (UniProt P30405) 0.073
PPIE (UniProt Q9UNP9) 0.023
